PubChem BioAssay AID1259254, NCATS | 2017

- Assay: 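Gene knock-downs that lead to re-replication, shown by excess G2 DNA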 (primary screen)
- Cell system: human HCT116 colorectal cancer cells
- Reagent: single siRNA against human genes
- Time to read-out: 3 days
- Read-out: 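Nuclei stained with Hoechst and imaged; cell-cycle phase assigned by DNA content; G2 share scaled per plate, non-targeting siRNA 0%, GMNN siRNA 100%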
- Direction: G2 robust z-score: higher = more G2 cells, more excess DNA replication
- Hit rule: 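Active siRNAs have a G2 robust z of 5 or more median absolute deviations over the median, which in these data means about 38% or higher of GMNN control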
The deposit covers about 59,000 reagents; shown is an unselected part. In the full data, about 1,550 (2.6%) were called active. 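G2 share is only a proxy for re-replication; each gene was hit by three separate siRNAs, and active genes were retested.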 Unmarked entries are inactive. Reagents against one gene are numbered here. Further read-outs or replicates are left out here. Not given: the amount of reagent.

gene,siRNA no.,G2 robust z-score
SND1-IT1 (SND1 intronic transcript 1),1,-0.659
SND1-IT1 (SND1 intronic transcript 1),2,-0.791
SND1-IT1 (SND1 intronic transcript 1),3,-0.118
IZUMO2 (IZUMO family member 2),1,-0.14
IZUMO2 (IZUMO family member 2),2,0.187
IZUMO2 (IZUMO family member 2),3,0.173
TIMM50 (translocase of inner mitochondrial membrane 50),1,-0.671
TIMM50 (translocase of inner mitochondrial membrane 50),2,-0.515
TIMM50 (translocase of inner mitochondrial membrane 50),3,1.67
UGT2A1 (UDP glucuronosyltransferase family 2 member A1 complex locus),1,0.874
UGT2A1 (UDP glucuronosyltransferase family 2 member A1 complex locus),2,0.946
UGT2A1 (UDP glucuronosyltransferase family 2 member A1 complex locus),3,-1.08
RSL1D1 (ribosomal L1 domain containing 1),1,0.102
RSL1D1 (ribosomal L1 domain containing 1),2,-0.487
RSL1D1 (ribosomal L1 domain containing 1),3,1.15
STT3B (STT3 oligosaccharyltransferase complex catalytic subunit B),1,-0.89
STT3B (STT3 oligosaccharyltransferase complex catalytic subunit B),2,3.84
STT3B (STT3 oligosaccharyltransferase complex catalytic subunit B),3,1.04
KAT14 (lysine acetyltransferase 14),1,-1.09
KAT14 (lysine acetyltransferase 14),2,-0.188
KAT14 (lysine acetyltransferase 14),3,2.97
ALPK1 (alpha kinase 1),1,0.497
ALPK1 (alpha kinase 1),2,0.229
ALPK1 (alpha kinase 1),3,1.1
CSN1S1 (casein alpha s1),1,0.525
CSN1S1 (casein alpha s1),2,-0.263
CSN1S1 (casein alpha s1),3,1.43
CCDC30 (coiled-coil domain containing 30),1,1.25
CCDC30 (coiled-coil domain containing 30),2,-0.176
CCDC30 (coiled-coil domain containing 30),3,-0.258
CCDC30 (coiled-coil domain containing 30),4,-0.348
CCDC30 (coiled-coil domain containing 30),5,-0.629
CCDC30 (coiled-coil domain containing 30),6,-0.705
PDE5A (phosphodiesterase 5A),1,-0.923
PDE5A (phosphodiesterase 5A),2,-0.972
PDE5A (phosphodiesterase 5A),3,-0.0645
MAGEB3 (MAGE family member B3),1,4.19
MAGEB3 (MAGE family member B3),2,-0.731
MAGEB3 (MAGE family member B3),3,1.12
DDX20 (DEAD-box helicase 20),1,-0.56
DDX20 (DEAD-box helicase 20),2,-0.00265
DDX20 (DEAD-box helicase 20),3,4.13
SMPD3 (sphingomyelin phosphodiesterase 3),1,0.272
SMPD3 (sphingomyelin phosphodiesterase 3),2,0.6
SMPD3 (sphingomyelin phosphodiesterase 3),3,-0.37

8 entries from above, sorted by “G2 robust z-score”, ascending:
gene,siRNA no.,G2 robust z-score
UGT2A1 (UDP glucuronosyltransferase family 2 member A1 complex locus),3,-1.08
STT3B (STT3 oligosaccharyltransferase complex catalytic subunit B),1,-0.89
RSL1D1 (ribosomal L1 domain containing 1),2,-0.487
RSL1D1 (ribosomal L1 domain containing 1),1,0.102
UGT2A1 (UDP glucuronosyltransferase family 2 member A1 complex locus),1,0.874
UGT2A1 (UDP glucuronosyltransferase family 2 member A1 complex locus),2,0.946
RSL1D1 (ribosomal L1 domain containing 1),3,1.15
TIMM50 (translocase of inner mitochondrial membrane 50),3,1.67

Further entries follow:
gene,siRNA no.,G2 robust z-score
TMED7 (transmembrane p24 trafficking protein 7),1,1.74
TMED7 (transmembrane p24 trafficking protein 7),2,-0.32
TMED7 (transmembrane p24 trafficking protein 7),3,-0.827
GMEB2 (glucocorticoid modulatory element binding protein 2),1,0.435
GMEB2 (glucocorticoid modulatory element binding protein 2),2,0.328
GMEB2 (glucocorticoid modulatory element binding protein 2),3,3.9
OXER1 (oxoeicosanoid receptor 1),1,2.96
OXER1 (oxoeicosanoid receptor 1),2,2.61
OXER1 (oxoeicosanoid receptor 1),3,-0.507
RET (ret proto-oncogene),1,-0.00975
RET (ret proto-oncogene),2,-0.862
RET (ret proto-oncogene),3,-0.586
"CRKL (CRK like proto-oncogene, adaptor protein)",1,7.41 (active)
"CRKL (CRK like proto-oncogene, adaptor protein)",2,0.834
"CRKL (CRK like proto-oncogene, adaptor protein)",3,3.03
FAM162B (family with sequence similarity 162 member B),1,0.534
FAM162B (family with sequence similarity 162 member B),2,-0.459
FAM162B (family with sequence similarity 162 member B),3,-0.177
UAP1L1 (UDP-N-acetylglucosamine pyrophosphorylase 1 like 1),1,0.0419
UAP1L1 (UDP-N-acetylglucosamine pyrophosphorylase 1 like 1),2,2.57
UAP1L1 (UDP-N-acetylglucosamine pyrophosphorylase 1 like 1),3,-0.218
C1QL4 (complement C1q like 4),1,3.19
C1QL4 (complement C1q like 4),2,-0.419
C1QL4 (complement C1q like 4),3,0.585
